PubChem BioAssay AID493246 – Drosophila RNAi Screening Center | 2011

- Screen: 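Identify essential fly genes by loss of cell viability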 (primary screen)
- Cells: Drosophila Kc and S2R+ cells
- Knock-down reagent: long dsRNA against Drosophila genes
- Detection: 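Cell number per well after knock-down, printed as raw plate values; calls were based on per-plate z-scores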
- Reading the numbers: Kc cell number and S2R+ cell number: higher = more cells remaining
- Call rule: 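Active when the per-plate z-score of cell number is 3 or more in the direction of fewer cells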
The deposit covers about 21,000 reagents; below is a random part of those that have a named target and a result. Over the whole deposit, 429 (2%) were called active. 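Values are raw and not normalised between plates; calls rest on per-plate z-scores that were not deposited.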 Unmarked entries are inactive. Reagents against one gene are numbered here. Not given: the amount of reagent, the time to read-out.

target gene | reagent | Kc cell number, rep 1 | Kc cell number, rep 2 | S2R+ cell number, rep 1 | S2R+ cell number, rep 2
CG7448 (retired record) | 1 | 1.63e6 | 1.63e6 | 1.19e6 | 1.28e6
Eps-15 | 1 | 1.26e6 | 1.41e6 | 8.51e5 | 9.40e5
grim | 1 | 1.34e6 | 1.36e6 | 8.90e5 | 1.03e6
CG15130 | 1 | 1.54e6 | 1.62e6 | 1.23e6 | 2.95e5
CG5280 | 1 | 1.36e6 | 1.29e6 | 1.26e6 | 1.28e6
CG11550 | 1 | 1.55e6 | 1.48e6 | 1.00e6 | 1.13e6
Rpn10 | 1 | 1.23e6 (active) | 1.26e6 | 8.09e5 | 9.29e5
Jhbp11 | 1 | 1.59e6 | 1.62e6 | 1.07e6 | 1.17e6
CG31437 | 1 | 1.33e6 | 1.33e6 | 9.95e5 | 1.12e6
Glo1 | 1 | 1.59e6 | 1.60e6 | 1.31e6 | 1.45e6
Df31 | 1 | 1.50e6 | 1.69e6 | 1.05e6 | 1.23e6
E(spl)m2-BFM | 1 | 1.44e6 | 1.43e6 | 7.10e5 | 8.45e5
dap | 1 | 1.35e6 | 1.44e6 | 1.10e6 | 1.17e6
S-Lap8 | 1 | 1.43e6 | 1.44e6 | 1.02e6 | 1.20e6
CG3156 | 1 | 5.26e5 | – | 8.08e5 | –
side-VI | 1 | 1.67e6 | 1.64e6 | 1.12e6 | 1.38e6
side-VI | 2 | 1.74e6 | 1.79e6 | 1.16e6 | 1.43e6
side-VI | 3 | 1.45e6 | 1.59e6 | 1.36e6 | 1.47e6
side-VI | 4 | 1.54e6 | 1.63e6 | 1.35e6 | 1.35e6
Reg-5 | 1 | 1.31e6 | 1.28e6 | 7.94e5 | 9.45e5
CG13337 | 1 | 1.55e6 | 1.62e6 | 1.37e6 | 1.45e6
CG45002 | 1 | 1.53e6 | 1.51e6 | 1.07e6 | 1.17e6
CG11668 | 1 | 1.48e6 | 1.46e6 | 1.07e6 | 1.19e6
Oatp30B | 1 | 1.40e6 | 1.42e6 | 1.05e6 | 1.12e6

2 of these entries in another layout.
| target gene | reagent | Kc cell number, rep 1 | Kc cell number, rep 2 | S2R+ cell number, rep 1 | S2R+ cell number, rep 2 |
| --- | --- | --- | --- | --- | --- |
| CG3156 | 1 | 5.26e5 | – | 8.08e5 | – |
| side-VI | 1 | 1.67e6 | 1.64e6 | 1.12e6 | 1.38e6 |
